Experimental data taken from patent US20190030126A1, “Inhibitors of the Interaction BCL-2 L10 / IP3 Receptors” (Universite Claude Bernard - Lyon 1, priority 2016, published 2019).
No constants are given. Whether binding was seen depends on the method and setting. Binding seen in cells or lysates may run through a third protein. Some results given as binding are weak or reduced against the parent protein; the word gives no strength. Sequences can lack the tags named with a protein.

Biological target: T1, Flag-Nrh (human Bcl-2 L10/Nrh protein tagged with a Flag epitope) (human) (UniProt Q9HD36)
T1 sequence (looked up): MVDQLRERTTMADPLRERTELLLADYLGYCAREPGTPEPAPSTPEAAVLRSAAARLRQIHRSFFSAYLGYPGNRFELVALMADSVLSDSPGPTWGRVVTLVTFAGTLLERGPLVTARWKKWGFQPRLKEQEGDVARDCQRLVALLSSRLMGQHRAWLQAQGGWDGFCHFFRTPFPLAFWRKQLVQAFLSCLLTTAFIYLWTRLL
Test: streptavidin pull-down of biotin-labelled peptide (5 µg), HeLa cell extracts

B1: biotin-labelled Nrh 1-23 wild-type peptide (peptide)
peptide: MADPLRERTELLLADYLGYCARE
modifications: biotin-labelled (position not given)
- binding: binds
